No constants are given. Whether binding was seen depends on the method and setting. Binding seen in cells or lysates may run through a third protein. A result given as binding can be weak or reduced; the word gives no strength.

Protein sequences, listed by entry. Tags and fused reporters are not part of them. Lines headed by an entry give the natural chain unless they say otherwise; changes in a name come on top.
UniProt P67775: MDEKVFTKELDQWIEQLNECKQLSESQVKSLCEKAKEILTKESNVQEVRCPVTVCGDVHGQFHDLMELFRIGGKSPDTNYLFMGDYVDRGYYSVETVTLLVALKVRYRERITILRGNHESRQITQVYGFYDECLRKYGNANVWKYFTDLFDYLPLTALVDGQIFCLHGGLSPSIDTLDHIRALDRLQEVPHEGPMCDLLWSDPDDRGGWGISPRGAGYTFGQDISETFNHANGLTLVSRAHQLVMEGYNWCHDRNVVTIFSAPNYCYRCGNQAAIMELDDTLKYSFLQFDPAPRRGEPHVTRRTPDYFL

Assay in all cases: co-IP; endogenous proteins in cell lysates (HK-2 ER stress model, tunicamycin without or with Sephin1); antibody mixed with lysate in Cell Lysis Buffer overnight at 4 °C, protein A/G magnetic beads 1 h at 4 °C, low-pH elution, Western blot
(Immunoblotting shows a protein as a band on a membrane.)

Assay [1] addresses T1, PP2A subunit B isoform delta (human (endogenous in HK-2)) (UniProt Q66LE6).
T1 sequence: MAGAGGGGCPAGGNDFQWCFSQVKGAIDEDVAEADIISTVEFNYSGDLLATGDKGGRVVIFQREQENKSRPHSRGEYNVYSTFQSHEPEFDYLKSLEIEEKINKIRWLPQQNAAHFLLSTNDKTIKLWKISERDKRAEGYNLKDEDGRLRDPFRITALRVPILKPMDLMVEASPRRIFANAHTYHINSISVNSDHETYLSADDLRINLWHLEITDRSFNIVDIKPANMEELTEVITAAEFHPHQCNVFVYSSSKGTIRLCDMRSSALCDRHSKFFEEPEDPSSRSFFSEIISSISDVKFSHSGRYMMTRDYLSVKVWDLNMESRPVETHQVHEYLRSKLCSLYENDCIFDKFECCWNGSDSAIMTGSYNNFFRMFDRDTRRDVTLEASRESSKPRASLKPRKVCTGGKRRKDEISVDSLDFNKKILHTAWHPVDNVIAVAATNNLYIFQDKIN

Assay [2] concerns the target AMPK (human (endogenous in HK-2)).
Assay [3] concerns the target PP2A catalytic subunit (PP2ACα/β) (human (endogenous in HK-2)) (UniProt P67775).

Regarding “PP2A catalytic subunit (PP2ACα/β) (from UniProt P67775)”, the binding result in assay [1] is recorded as “binds”.

B1: PP2A subunit B isoform delta (protein, UniProt Q66LE6 1-453)
chain: T1 sequence
B1: the binding result in assay [2] and in assay [3] was “binds” throughout.

The values above are taken from PMC11840111.
